{"source": "the supplement of paper PMC8728848", "binders": {"B1": {"name": "HA-61200 (Pseudomonas aeruginosa), Q02SP8_PSEAB (protein)", "chain": "MNKCYALVWNVSQGCWNVVSEGSRRRGKPAGAKAAIASVLALLGATALAPAYALPSGGTVVGGSANGEIHLSGGNSLSVNQKVDKLIANWDSFSVAAGERVIFNQPSSSSIALNRVIGTKASDIQGRIDANGQVFLVNPNGVLFGRGAQVNVGGLVASTLDITDAEFNGNSSRYRFTGPSTNGVLNHGGAITAAEGGSIALLGAQVDNRGTVLAQMGGVGLGAGSDLTLNFDGNKLLDIRVDAGVANALASNGGLLKADGGRVLMAARTANALLNTVVNSQGAIEARSLRGKNGRIVLDG"}}, "test_in_all_cases": "glycan array binding signal (z-score within array); higher = stronger binding", "conditions_in_all_cases": "glycan notation: IUPAC condensed, linker removed", "key": {"[1]": {"molecular_target": "Neu5Ac(a2-3)Gal", "how_it_was_run": "(§1)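 Glycan array data came from 3228 arrays in the Consortium for Functional Glycomics database, and only arrays with an available protein sequence were kept. Glycan names were put into IUPAC-condensed notation, and columns mapping to the same glycan were averaged. The binding signal is a within-array Z-score, averaged across arrays of one protein sequence run at different concentrations or buffers and across linkers. A negative Z-score can be read as non-binding.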"}, "[2]": {"molecular_target": "Neu5Ac(a2-3)Gal(b1-3)GalNAc", "how_it_was_run": "as §1"}, "[3]": {"molecular_target": "Neu5Ac(a2-3)Gal(b1-3)GalNAc(b1-3)Gal(a1-4)Gal(b1-4)Glc", "how_it_was_run": "as §1"}, "[4]": {"molecular_target": "Neu5Ac(a2-3)Gal(b1-3)GalNAc(b1-4)Gal(b1-4)Glc", "how_it_was_run": "as §1"}, "[5]": {"molecular_target": "Neu5Ac(a2-3)Gal(b1-3)GalNAc(b1-4)[Neu5Ac(a2-3)]Gal(b1-4)Glc", "how_it_was_run": "as §1"}, "[6]": {"molecular_target": "Neu5Ac(a2-3)Gal(b1-3)GalNAc(b1-4)[Neu5Ac(a2-8)Neu5Ac(a2-3)]Gal(b1-4)Glc", "how_it_was_run": "as §1"}, "[7]": {"molecular_target": "Neu5Ac(a2-3)Gal(b1-3)GalNAc6S", "how_it_was_run": "as §1"}, "[8]": {"molecular_target": "Neu5Ac(a2-3)Gal(b1-3)GlcNAc", "how_it_was_run": "as §1"}, "[9]": {"molecular_target": "Neu5Ac(a2-3)Gal(b1-3)GlcNAc(b1-2)Man", "how_it_was_run": "as §1"}, "[10]": {"molecular_target": "Neu5Ac(a2-3)Gal(b1-3)GlcNAc(b1-2)Man(a1-3)[GlcNAc(b1-4)][Neu5Ac(a2-3)Gal(b1-3)GlcNAc(b1-2)Man(a1-6)]Man(b1-4)GlcNAc(b1-4)GlcNAc", "how_it_was_run": "as §1"}, "[11]": {"molecular_target": "Neu5Ac(a2-3)Gal(b1-3)GlcNAc(b1-2)Man(a1-3)[Neu5Ac(a2-3)Gal(b1-3)GlcNAc(b1-2)Man(a1-6)]Man(b1-4)GlcNAc(b1-4)GlcNAc", "how_it_was_run": "as §1"}, "[12]": {"molecular_target": "Neu5Ac(a2-3)Gal(b1-3)GlcNAc(b1-2)[Neu5Ac(a2-3)Gal(b1-3)GlcNAc(b1-4)]Man(a1-6)[Neu5Ac(a2-3)Gal(b1-3)GlcNAc(b1-2)Man(a1-3)]Man(b1-4)GlcNAc(b1-4)GlcNAc", "how_it_was_run": "as §1"}, "[13]": {"molecular_target": "Neu5Ac(a2-3)Gal(b1-3)GlcNAc(b1-3)Gal(b1-3)GlcNAc", "how_it_was_run": "as §1"}, "[14]": {"molecular_target": "Neu5Ac(a2-3)Gal(b1-3)GlcNAc(b1-3)Gal(b1-4)GlcNAc", "how_it_was_run": "as §1"}, "[15]": {"molecular_target": "Neu5Ac(a2-3)Gal(b1-3)GlcNAc(b1-3)GalNAc", "how_it_was_run": "as §1"}, "[16]": {"molecular_target": "Neu5Ac(a2-3)Gal(b1-3)GlcNAc(b1-6)GalNAc", "how_it_was_run": "as §1"}, "[17]": {"molecular_target": "Neu5Ac(a2-3)Gal(b1-3)GlcNAc6S", "how_it_was_run": "as §1"}, "[18]": {"molecular_target": "Neu5Ac(a2-3)Gal(b1-3)[Fuc(a1-4)]GlcNAc", "how_it_was_run": "as §1"}, "[19]": {"molecular_target": "Neu5Ac(a2-3)Gal(b1-3)[Fuc(a1-4)]GlcNAc(b1-3)Gal(b1-3)[Fuc(a1-4)]GlcNAc", "how_it_was_run": "as §1"}, "[20]": {"molecular_target": "Neu5Ac(a2-3)Gal(b1-3)[Fuc(a1-4)]GlcNAc(b1-3)Gal(b1-4)[Fuc(a1-3)]GlcNAc", "how_it_was_run": "as §1"}, "[21]": {"molecular_target": "Neu5Ac(a2-3)Gal(b1-3)[GlcNAc(b1-6)]GalNAc", "how_it_was_run": "as §1"}, "[22]": {"molecular_target": "Neu5Ac(a2-3)Gal(b1-3)[Neu5Ac(a2-6)]GalNAc", "how_it_was_run": "as §1"}, "[23]": {"molecular_target": "Neu5Ac(a2-3)Gal(b1-3)[Neu5Ac(a2-6)]GlcNAc(b1-3)[Fuc(a1-3)[Gal(b1-4)]GlcNAc(b1-6)]Gal(b1-4)Glc", "how_it_was_run": "as §1"}, "[24]": {"molecular_target": "Neu5Ac(a2-3)Gal(b1-3)]Neu5Ac(a2-3)Gal(b1-4)]GlcNAc", "how_it_was_run": "as §1"}, "[25]": {"molecular_target": "Neu5Ac(a2-3)Gal(b1-4)Glc", "how_it_was_run": "as §1"}, "[26]": {"molecular_target": "Neu5Ac(a2-3)Gal(b1-4)GlcNAc", "how_it_was_run": "as §1"}, "[27]": {"molecular_target": "Neu5Ac(a2-3)Gal(b1-4)GlcNAc(b1-2)Man", "how_it_was_run": "as §1"}, "[28]": {"molecular_target": "Neu5Ac(a2-3)Gal(b1-4)GlcNAc(b1-2)Man(a1-3)[GlcNAc(b1-4)][Neu5Ac(a2-3)Gal(b1-4)GlcNAc(b1-2)Man(a1-6)]Man(b1-4)GlcNAc(b1-4)GlcNAc", "how_it_was_run": "as §1"}, "[29]": {"molecular_target": "Neu5Ac(a2-3)Gal(b1-4)GlcNAc(b1-2)Man(a1-3)[Neu5Ac(a2-3)Gal(b1-4)GlcNAc(b1-2)Man(a1-6)]Man(b1-4)GlcNAc(b1-4)GlcNAc", "how_it_was_run": "as §1"}, "[30]": {"molecular_target": "Neu5Ac(a2-3)Gal(b1-4)GlcNAc(b1-2)Man(a1-3)[Neu5Ac(a2-3)Gal(b1-4)GlcNAc(b1-2)Man(a1-6)]Man(b1-4)GlcNAc(b1-4)[Fuc(a1-6)]GlcNAc", "how_it_was_run": "as §1"}, "[31]": {"molecular_target": "Neu5Ac(a2-3)Gal(b1-4)GlcNAc(b1-2)Man(a1-3)[Neu5Ac(a2-6)Gal(b1-4)GlcNAc(b1-2)Man(a1-6)]Man(b1-4)GlcNAc(b1-4)GlcNAc", "how_it_was_run": "as §1"}, "[32]": {"molecular_target": "Neu5Ac(a2-3)Gal(b1-4)GlcNAc(b1-2)[Neu5Ac(a2-3)Gal(b1-4)GlcNAc(b1-4)]Man(a1-3)[GlcNAc(b1-4)][Neu5Ac(a2-3)Gal(b1-4)GlcNAc(b1-2)[Neu5Ac(a2-3)Gal(b1-4)GlcNAc(b1-6)]Man(a1-6)]Man(b1-4)GlcNAc(b1-4)GlcNAc", "how_it_was_run": "as §1"}, "[33]": {"molecular_target": "Neu5Ac(a2-3)Gal(b1-4)GlcNAc(b1-2)[Neu5Ac(a2-3)Gal(b1-4)GlcNAc(b1-4)]Man(a1-3)[GlcNAc(b1-4)][Neu5Ac(a2-3)Gal(b1-4)GlcNAc(b1-4)Man(a1-6)]Man(b1-4)GlcNAc(b1-4)GlcNAc", "how_it_was_run": "as §1"}, "[34]": {"molecular_target": "Neu5Ac(a2-3)Gal(b1-4)GlcNAc(b1-2)[Neu5Ac(a2-3)Gal(b1-4)GlcNAc(b1-6)]Man(a1-6)[Neu5Ac(a2-3)Gal(b1-4)GlcNAc(b1-2)Man(a1-3)][GlcNAc(b1-4)]Man(b1-4)GlcNAc(b1-4)GlcNAc", "how_it_was_run": "as §1"}, "[35]": {"molecular_target": "Neu5Ac(a2-3)Gal(b1-4)GlcNAc(b1-3)Gal", "how_it_was_run": "as §1"}, "[36]": {"molecular_target": "Neu5Ac(a2-3)Gal(b1-4)GlcNAc(b1-3)Gal(b1-3)GlcNAc", "how_it_was_run": "as §1"}, "[37]": {"molecular_target": "Neu5Ac(a2-3)Gal(b1-4)GlcNAc(b1-3)Gal(b1-4)GlcNAc", "how_it_was_run": "as §1"}}, "note": "The other results are listed elsewhere or left out."}
{"binder": "B1", "values": [{"measurement": "glycan array binding signal (z-score)", "setting": "[1]", "result": -0.698}, {"measurement": "glycan array binding signal (z-score)", "setting": "[2]", "result": -1}, {"measurement": "glycan array binding signal (z-score)", "setting": "[3]", "result": -0.529}, {"measurement": "glycan array binding signal (z-score)", "setting": "[4]", "result": -0.132}, {"measurement": "glycan array binding signal (z-score)", "setting": "[5]", "result": -0.582}, {"measurement": "glycan array binding signal (z-score)", "setting": "[6]", "result": -0.261}, {"measurement": "glycan array binding signal (z-score)", "setting": "[7]", "result": -0.771}, {"measurement": "glycan array binding signal (z-score)", "setting": "[8]", "result": 0.042}, {"measurement": "glycan array binding signal (z-score)", "setting": "[9]", "result": -0.191}, {"measurement": "glycan array binding signal (z-score)", "setting": "[10]", "result": -0.143}, {"measurement": "glycan array binding signal (z-score)", "setting": "[11]", "result": 0.145}, {"measurement": "glycan array binding signal (z-score)", "setting": "[12]", "result": 0.786}, {"measurement": "glycan array binding signal (z-score)", "setting": "[13]", "result": -0.404}, {"measurement": "glycan array binding signal (z-score)", "setting": "[14]", "result": -0.144}, {"measurement": "glycan array binding signal (z-score)", "setting": "[15]", "result": 0.333}, {"measurement": "glycan array binding signal (z-score)", "setting": "[16]", "result": 0.347}, {"measurement": "glycan array binding signal (z-score)", "setting": "[17]", "result": -0.444}, {"measurement": "glycan array binding signal (z-score)", "setting": "[18]", "result": -0.695}, {"measurement": "glycan array binding signal (z-score)", "setting": "[19]", "result": 0.278}, {"measurement": "glycan array binding signal (z-score)", "setting": "[20]", "result": -0.831}, {"measurement": "glycan array binding signal (z-score)", "setting": "[21]", "result": 0.057}, {"measurement": "glycan array binding signal (z-score)", "setting": "[22]", "result": -0.092}, {"measurement": "glycan array binding signal (z-score)", "setting": "[23]", "result": 0.927}, {"measurement": "glycan array binding signal (z-score)", "setting": "[24]", "result": -0.247}, {"measurement": "glycan array binding signal (z-score)", "setting": "[25]", "result": 0.217}, {"measurement": "glycan array binding signal (z-score)", "setting": "[26]", "result": -0.476}, {"measurement": "glycan array binding signal (z-score)", "setting": "[27]", "result": -0.247}, {"measurement": "glycan array binding signal (z-score)", "setting": "[28]", "result": -0.29}, {"measurement": "glycan array binding signal (z-score)", "setting": "[29]", "result": -0.003}, {"measurement": "glycan array binding signal (z-score)", "setting": "[30]", "result": 0.873}, {"measurement": "glycan array binding signal (z-score)", "setting": "[31]", "result": -0.276}, {"measurement": "glycan array binding signal (z-score)", "setting": "[32]", "result": 0.298}, {"measurement": "glycan array binding signal (z-score)", "setting": "[33]", "result": -0.405}, {"measurement": "glycan array binding signal (z-score)", "setting": "[34]", "result": -0.137}, {"measurement": "glycan array binding signal (z-score)", "setting": "[35]", "result": -0.852}, {"measurement": "glycan array binding signal (z-score)", "setting": "[36]", "result": -0.215}, {"measurement": "glycan array binding signal (z-score)", "setting": "[37]", "result": 0.479}]}
